± gives the standard deviation of the averaged measurements. Only a part is listed here, and it is no random draw. Some of the results follow.

By UniProt entry, the sequences of proteins in these tests, tags left out. Where a name states a change or a piece, a line headed by the entry shows the natural chain unless it says otherwise.
UniProt Q9Y3X0: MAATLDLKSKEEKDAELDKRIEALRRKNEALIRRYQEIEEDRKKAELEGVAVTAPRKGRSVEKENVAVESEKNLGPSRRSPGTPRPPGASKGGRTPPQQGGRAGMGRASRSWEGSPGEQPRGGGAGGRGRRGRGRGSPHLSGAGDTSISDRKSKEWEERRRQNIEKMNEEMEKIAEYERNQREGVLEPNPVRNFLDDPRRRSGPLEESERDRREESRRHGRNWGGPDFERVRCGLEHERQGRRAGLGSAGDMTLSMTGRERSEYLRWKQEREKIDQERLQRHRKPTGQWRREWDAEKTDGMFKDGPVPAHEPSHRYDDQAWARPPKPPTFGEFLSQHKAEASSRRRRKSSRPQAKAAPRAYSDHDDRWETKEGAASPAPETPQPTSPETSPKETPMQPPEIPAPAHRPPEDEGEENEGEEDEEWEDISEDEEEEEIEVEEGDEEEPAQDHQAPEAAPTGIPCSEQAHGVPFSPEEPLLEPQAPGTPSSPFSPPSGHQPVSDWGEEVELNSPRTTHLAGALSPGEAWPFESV
UniProt Q9Y6G9, whole entry: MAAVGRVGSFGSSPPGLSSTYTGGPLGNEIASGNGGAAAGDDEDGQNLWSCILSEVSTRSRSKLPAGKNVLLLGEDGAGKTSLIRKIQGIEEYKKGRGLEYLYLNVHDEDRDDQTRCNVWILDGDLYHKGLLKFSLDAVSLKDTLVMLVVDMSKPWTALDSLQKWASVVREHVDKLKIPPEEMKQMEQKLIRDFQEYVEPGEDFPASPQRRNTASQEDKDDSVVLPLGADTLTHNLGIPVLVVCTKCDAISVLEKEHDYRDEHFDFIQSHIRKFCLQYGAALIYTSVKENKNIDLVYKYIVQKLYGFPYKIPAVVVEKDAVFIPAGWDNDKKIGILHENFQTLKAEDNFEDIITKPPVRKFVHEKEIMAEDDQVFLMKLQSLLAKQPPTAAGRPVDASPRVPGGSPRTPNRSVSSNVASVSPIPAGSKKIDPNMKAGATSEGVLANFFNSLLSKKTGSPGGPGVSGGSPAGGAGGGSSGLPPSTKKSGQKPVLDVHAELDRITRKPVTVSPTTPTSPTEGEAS
UniProt Q9Y2Z0: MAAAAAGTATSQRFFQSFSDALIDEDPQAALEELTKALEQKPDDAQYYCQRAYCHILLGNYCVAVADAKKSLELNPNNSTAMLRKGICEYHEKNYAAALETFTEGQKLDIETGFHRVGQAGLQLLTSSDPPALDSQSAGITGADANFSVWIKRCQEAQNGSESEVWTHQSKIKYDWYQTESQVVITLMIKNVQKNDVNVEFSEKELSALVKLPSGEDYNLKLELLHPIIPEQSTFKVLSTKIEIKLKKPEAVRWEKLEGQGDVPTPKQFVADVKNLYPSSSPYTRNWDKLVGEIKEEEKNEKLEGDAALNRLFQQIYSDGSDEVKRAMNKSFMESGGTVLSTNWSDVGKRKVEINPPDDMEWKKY
UniProt Q00341: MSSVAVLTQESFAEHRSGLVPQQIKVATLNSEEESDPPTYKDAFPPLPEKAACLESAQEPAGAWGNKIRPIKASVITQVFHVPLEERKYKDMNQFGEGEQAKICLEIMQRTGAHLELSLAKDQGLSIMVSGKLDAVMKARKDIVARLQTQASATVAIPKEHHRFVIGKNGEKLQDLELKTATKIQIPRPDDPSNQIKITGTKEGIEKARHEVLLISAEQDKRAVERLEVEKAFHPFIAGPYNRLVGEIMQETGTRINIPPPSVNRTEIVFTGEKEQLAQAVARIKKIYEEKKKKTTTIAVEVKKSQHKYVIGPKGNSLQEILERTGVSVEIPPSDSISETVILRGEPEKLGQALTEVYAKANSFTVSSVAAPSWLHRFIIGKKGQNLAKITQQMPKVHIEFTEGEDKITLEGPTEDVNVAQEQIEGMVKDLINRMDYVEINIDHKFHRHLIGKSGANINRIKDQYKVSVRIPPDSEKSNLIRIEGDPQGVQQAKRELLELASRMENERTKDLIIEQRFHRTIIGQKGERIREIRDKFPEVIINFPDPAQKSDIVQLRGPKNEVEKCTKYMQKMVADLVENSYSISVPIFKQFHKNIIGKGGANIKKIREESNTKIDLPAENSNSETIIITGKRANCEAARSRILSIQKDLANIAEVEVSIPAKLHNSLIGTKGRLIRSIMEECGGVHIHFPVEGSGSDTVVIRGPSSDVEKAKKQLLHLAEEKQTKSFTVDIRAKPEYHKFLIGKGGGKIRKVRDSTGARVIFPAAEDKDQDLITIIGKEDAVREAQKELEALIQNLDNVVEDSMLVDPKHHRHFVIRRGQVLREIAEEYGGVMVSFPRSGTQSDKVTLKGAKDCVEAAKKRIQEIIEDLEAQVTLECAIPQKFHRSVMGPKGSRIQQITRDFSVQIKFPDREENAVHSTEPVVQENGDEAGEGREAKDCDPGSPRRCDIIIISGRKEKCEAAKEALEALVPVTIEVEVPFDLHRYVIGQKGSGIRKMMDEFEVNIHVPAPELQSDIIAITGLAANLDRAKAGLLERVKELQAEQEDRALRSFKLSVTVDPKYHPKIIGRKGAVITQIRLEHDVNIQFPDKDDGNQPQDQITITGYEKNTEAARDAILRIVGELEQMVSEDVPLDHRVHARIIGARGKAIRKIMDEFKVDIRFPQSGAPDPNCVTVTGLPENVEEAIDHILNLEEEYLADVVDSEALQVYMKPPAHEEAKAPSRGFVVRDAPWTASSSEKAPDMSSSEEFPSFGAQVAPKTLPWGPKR
UniProt P06493, whole entry, looked up: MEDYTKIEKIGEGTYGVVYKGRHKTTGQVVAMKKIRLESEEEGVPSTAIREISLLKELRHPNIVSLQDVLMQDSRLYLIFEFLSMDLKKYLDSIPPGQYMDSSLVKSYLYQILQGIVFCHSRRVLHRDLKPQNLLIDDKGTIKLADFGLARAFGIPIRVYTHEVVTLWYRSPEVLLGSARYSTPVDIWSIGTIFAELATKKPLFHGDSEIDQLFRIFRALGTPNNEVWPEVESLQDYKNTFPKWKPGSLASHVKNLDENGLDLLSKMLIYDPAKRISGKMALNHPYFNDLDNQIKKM
UniProt Q14241: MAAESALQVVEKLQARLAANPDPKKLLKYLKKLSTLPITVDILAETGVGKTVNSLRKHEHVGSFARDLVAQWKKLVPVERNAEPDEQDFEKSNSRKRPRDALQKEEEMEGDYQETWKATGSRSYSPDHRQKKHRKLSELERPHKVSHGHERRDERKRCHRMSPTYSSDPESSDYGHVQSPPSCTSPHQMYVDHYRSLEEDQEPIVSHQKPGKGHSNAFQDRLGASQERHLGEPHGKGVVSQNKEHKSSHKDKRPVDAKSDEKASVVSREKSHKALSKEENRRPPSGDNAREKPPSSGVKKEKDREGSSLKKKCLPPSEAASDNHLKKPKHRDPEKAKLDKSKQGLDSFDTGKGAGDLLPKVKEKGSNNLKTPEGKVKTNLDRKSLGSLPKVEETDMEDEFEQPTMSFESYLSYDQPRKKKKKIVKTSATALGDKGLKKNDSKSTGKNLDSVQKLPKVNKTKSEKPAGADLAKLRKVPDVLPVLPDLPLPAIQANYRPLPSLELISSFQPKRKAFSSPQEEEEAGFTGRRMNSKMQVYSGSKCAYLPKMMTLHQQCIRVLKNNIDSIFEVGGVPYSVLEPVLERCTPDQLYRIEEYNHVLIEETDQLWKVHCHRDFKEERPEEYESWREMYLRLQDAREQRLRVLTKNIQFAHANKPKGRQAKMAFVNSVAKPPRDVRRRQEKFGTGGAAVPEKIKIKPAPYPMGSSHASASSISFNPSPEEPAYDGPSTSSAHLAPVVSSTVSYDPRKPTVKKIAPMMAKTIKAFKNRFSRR
UniProt Q8NB49: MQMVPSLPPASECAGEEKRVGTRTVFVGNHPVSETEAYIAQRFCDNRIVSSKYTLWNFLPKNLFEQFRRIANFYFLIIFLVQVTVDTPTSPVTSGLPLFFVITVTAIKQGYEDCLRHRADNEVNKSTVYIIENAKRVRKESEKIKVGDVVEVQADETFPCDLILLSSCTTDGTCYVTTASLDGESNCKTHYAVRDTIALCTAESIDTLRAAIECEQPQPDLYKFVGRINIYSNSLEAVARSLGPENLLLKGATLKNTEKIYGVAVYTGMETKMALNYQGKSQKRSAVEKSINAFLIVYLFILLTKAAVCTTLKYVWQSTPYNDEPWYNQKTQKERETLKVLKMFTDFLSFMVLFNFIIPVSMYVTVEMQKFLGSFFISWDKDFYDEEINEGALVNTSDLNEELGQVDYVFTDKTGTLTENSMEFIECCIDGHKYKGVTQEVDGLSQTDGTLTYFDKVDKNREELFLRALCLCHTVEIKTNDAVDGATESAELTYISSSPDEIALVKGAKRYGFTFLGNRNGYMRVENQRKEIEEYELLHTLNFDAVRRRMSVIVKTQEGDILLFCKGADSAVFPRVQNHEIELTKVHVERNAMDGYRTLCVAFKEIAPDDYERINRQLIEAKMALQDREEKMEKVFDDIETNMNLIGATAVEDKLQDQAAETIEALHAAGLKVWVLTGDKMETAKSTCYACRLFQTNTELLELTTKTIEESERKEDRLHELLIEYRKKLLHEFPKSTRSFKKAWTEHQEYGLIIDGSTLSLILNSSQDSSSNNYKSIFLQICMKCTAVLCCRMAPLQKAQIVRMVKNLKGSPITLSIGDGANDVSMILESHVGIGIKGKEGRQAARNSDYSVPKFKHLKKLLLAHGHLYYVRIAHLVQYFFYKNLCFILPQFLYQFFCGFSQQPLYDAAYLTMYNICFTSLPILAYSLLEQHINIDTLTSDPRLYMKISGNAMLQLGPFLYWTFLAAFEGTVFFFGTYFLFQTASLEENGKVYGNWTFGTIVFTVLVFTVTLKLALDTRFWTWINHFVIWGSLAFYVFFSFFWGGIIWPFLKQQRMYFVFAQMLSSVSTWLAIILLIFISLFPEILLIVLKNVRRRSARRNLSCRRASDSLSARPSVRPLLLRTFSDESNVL
UniProt Q9Y3B3: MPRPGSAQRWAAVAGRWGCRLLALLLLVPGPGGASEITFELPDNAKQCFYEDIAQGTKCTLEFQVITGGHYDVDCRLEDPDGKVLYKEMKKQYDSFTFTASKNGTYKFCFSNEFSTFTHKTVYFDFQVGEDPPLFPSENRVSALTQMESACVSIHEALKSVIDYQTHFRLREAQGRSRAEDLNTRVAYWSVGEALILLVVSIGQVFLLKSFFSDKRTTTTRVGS
UniProt V9HW75, whole entry, looked up: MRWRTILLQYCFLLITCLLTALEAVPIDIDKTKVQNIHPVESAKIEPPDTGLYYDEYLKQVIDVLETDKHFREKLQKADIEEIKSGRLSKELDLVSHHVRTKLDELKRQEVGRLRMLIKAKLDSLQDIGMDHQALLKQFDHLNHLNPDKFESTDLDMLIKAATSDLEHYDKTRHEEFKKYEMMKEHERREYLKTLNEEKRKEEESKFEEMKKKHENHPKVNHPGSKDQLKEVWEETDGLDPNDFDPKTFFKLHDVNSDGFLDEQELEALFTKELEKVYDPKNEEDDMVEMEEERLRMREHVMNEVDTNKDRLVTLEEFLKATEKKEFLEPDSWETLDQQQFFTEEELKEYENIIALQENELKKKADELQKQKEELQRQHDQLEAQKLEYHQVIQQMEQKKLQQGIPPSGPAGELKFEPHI
UniProt Q9BSV6: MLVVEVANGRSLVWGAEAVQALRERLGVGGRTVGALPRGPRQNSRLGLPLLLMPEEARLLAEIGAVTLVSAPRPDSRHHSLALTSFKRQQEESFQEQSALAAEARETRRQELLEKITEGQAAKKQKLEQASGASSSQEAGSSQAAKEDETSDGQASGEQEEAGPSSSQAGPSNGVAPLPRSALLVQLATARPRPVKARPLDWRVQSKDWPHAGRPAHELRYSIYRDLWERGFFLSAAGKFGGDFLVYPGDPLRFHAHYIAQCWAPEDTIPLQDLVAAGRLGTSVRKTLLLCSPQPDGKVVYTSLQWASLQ
UniProt Q16881, whole entry: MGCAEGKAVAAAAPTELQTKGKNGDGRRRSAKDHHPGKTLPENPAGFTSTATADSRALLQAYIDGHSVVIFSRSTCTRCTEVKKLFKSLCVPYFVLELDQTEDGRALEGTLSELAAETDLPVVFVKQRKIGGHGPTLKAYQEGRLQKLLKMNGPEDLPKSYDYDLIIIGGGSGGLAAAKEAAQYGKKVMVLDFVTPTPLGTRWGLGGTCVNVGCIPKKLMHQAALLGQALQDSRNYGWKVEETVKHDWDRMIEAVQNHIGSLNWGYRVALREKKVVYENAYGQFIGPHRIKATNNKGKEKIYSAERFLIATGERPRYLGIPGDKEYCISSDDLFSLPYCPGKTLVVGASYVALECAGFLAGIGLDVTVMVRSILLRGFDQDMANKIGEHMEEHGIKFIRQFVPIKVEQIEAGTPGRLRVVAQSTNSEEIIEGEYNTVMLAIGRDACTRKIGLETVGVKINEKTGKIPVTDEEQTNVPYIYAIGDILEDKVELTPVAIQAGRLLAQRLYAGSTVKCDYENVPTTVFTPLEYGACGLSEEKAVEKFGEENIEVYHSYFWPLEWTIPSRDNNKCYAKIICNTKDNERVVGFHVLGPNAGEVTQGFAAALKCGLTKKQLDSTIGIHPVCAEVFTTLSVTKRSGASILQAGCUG

Compound in one experiment: Nc1ncnc2c1ncn2[C@@H]1O[C@H](COP(=O)(O)OP(=O)(O)OP(=O)(O)O)[C@@H](O)[C@H]1O [adenosine triphosphate]
As to the kind of experiment: NP40-soluble protein abundance relative to vehicle (solubility fold change) (ratio); higher = more soluble protein in presence of ATP. The gist of the method: (§1)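 Across three independent experiments, values are fold changes against the detergent-processed vehicle for each replicate, based on vsn-normalised intensities. The samples were Jurkat crude lysate treated with eight concentrations (0.1 to 10 mM) for 10 min at room temperature and then 3 min at 37 °C. Lysate was solubilised with 0.8% NP40 and benzonase, ultracentrifuged, and the supernatant analysed by TMT-labelled LC-MS/MS.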

Compound in another experiment: Nc1nc2c(ncn2[C@@H]2O[C@H](COP(=O)(O)OP(=O)(O)OP(=O)(O)O)[C@@H](O)[C@H]2O)c(=O)[nH]1 [guanosine triphosphate]
Nature of the experiment: NP40-soluble protein abundance relative to vehicle (solubility fold change) (ratio); higher = more soluble protein in presence of GTP. The gist of the method: as §1

Turning to CCDC9 (UniProt Q9Y3X0), the NP40-soluble protein abundance with adenosine triphosphate (concentration: 1mM) came to 1.11 ± 0.12; with adenosine triphosphate (concentration: 2mM), 1.17 ± 0.094; with adenosine triphosphate (concentration: 4mM), 1.2 ± 0.07; with adenosine triphosphate (concentration: 6mM), 1.35 ± 0.17; in the experiment with adenosine triphosphate (concentration: 8mM), 1.26 ± 0.083; with adenosine triphosphate (concentration: 10mM) it was 1.27 ± 0.066.
As to DYNC1LI1 (UniProt Q9Y6G9), the NP40-soluble protein abundance with adenosine triphosphate (concentration: 1mM) is 0.982 ± 0.043; with adenosine triphosphate (concentration: 2mM) it was 0.958 ± 0.048; with adenosine triphosphate (concentration: 4mM), 0.924 ± 0.051; with adenosine triphosphate (concentration: 6mM), 0.968 ± 0.13; with adenosine triphosphate (concentration: 8mM) it was 0.942 ± 0.066; with adenosine triphosphate (concentration: 10mM), 0.939 ± 0.032.
Consider UniProt Q9Y2Z0 and related entries, for which the NP40-soluble protein abundance with adenosine triphosphate (concentration: 1mM) was 0.976 ± 0.032; with adenosine triphosphate (concentration: 2mM), 0.985 ± 0.026; in the experiment with adenosine triphosphate (concentration: 4mM) it was 0.962 ± 0.037; in the experiment with adenosine triphosphate (concentration: 6mM), 0.978 ± 0.039; in the experiment with adenosine triphosphate (concentration: 8mM), 0.945 ± 0.024; with adenosine triphosphate (concentration: 10mM), 0.935 ± 0.014.
Take A0A024R216|Q9Y3E1 (UniProt Q9Y3E1): the NP40-soluble protein abundance was 0.932 ± 0.067 with guanosine triphosphate (concentration: 0.1mM); 0.958 ± 0.1 with guanosine triphosphate (concentration: 0.5mM); 1.02 ± 0.096 with guanosine triphosphate (concentration: 1mM); 1.01 ± 0.12 in the experiment with guanosine triphosphate (concentration: 2mM); 0.991 ± 0.14 in the experiment with guanosine triphosphate (concentration: 4mM); 1.04 ± 0.13 with guanosine triphosphate (concentration: 6mM). In addition, the NP40-soluble protein abundance with guanosine triphosphate (concentration: 8mM) was found to be 1.04 ± 0.13; with guanosine triphosphate (concentration: 10mM), 1.07 ± 0.093.
Regarding A0A024R4E5 (UniProt Q00341), the NP40-soluble protein abundance amounted to 0.973 ± 0.024 with guanosine triphosphate (concentration: 0.1mM); 0.945 ± 0.0094 with guanosine triphosphate (concentration: 0.5mM); 0.926 ± 0.015 with guanosine triphosphate (concentration: 1mM); 0.908 ± 0.015 in the experiment with guanosine triphosphate (concentration: 2mM); 0.923 ± 0.031 with guanosine triphosphate (concentration: 4mM); 0.928 ± 0.017 with guanosine triphosphate (concentration: 6mM). The NP40-soluble protein abundance was found to be 0.978 ± 0.034 with guanosine triphosphate (concentration: 8mM) and 0.992 ± 0.053 with guanosine triphosphate (concentration: 10mM).
As to A0A087WVC1|Q9BQ39 (UniProt Q9BQ39), the NP40-soluble protein abundance with guanosine triphosphate (concentration: 0.1mM) worked out at 1.19 ± 0.051; with guanosine triphosphate (concentration: 0.5mM) it was 1.25 ± 0.055; with guanosine triphosphate (concentration: 1mM), 1.4 ± 0.089; with guanosine triphosphate (concentration: 2mM) it was 1.89 ± 0.23; with guanosine triphosphate (concentration: 4mM) it was 2.57 ± 0.26; in the experiment with guanosine triphosphate (concentration: 6mM) it was 3.29 ± 0.3. Besides, the NP40-soluble protein abundance worked out at 3.85 ± 0.56 with guanosine triphosphate (concentration: 8mM) and 4.45 ± 0.47 in the experiment with guanosine triphosphate (concentration: 10mM).
Turning to A0A024QZP7|P06493 (UniProt P06493), the NP40-soluble protein abundance was determined as 0.954 ± 0.049 in the experiment with guanosine triphosphate (concentration: 0.1mM); 0.985 ± 0.034 in the experiment with guanosine triphosphate (concentration: 0.5mM); 0.925 ± 0.044 with guanosine triphosphate (concentration: 1mM); 0.909 ± 0.029 in the experiment with guanosine triphosphate (concentration: 2mM); 0.908 ± 0.055 with guanosine triphosphate (concentration: 4mM); 0.9 ± 0.046 with guanosine triphosphate (concentration: 6mM). Besides, the NP40-soluble protein abundance in the experiment with guanosine triphosphate (concentration: 8mM) was 0.886 ± 0.06; with guanosine triphosphate (concentration: 10mM), 0.875 ± 0.058.
Regarding A0A024RAC6 (UniProt Q14241), the NP40-soluble protein abundance with guanosine triphosphate (concentration: 0.1mM) amounted to 0.949 ± 0.023; with guanosine triphosphate (concentration: 0.5mM) it was 0.948 ± 0.023; with guanosine triphosphate (concentration: 1mM) it was 1.04 ± 0.021; with guanosine triphosphate (concentration: 2mM), 1.08 ± 0.028; with guanosine triphosphate (concentration: 4mM), 1.1 ± 0.04; with guanosine triphosphate (concentration: 6mM) it was 1.16 ± 0.041. The results for the NP40-soluble protein abundance with guanosine triphosphate (concentration: 8mM) and with guanosine triphosphate (concentration: 10mM) were 1.2 ± 0.038 and 1.26 ± 0.043, respectively.
Take “A0A087WU62|A0A087X2D5|A0A0G2JMS5|Q9BRJ2 (UniProt Q9BRJ2)”: the NP40-soluble protein abundance in the experiment with guanosine triphosphate (concentration: 0.1mM) amounted to 1.12 ± 0.036; in the experiment with guanosine triphosphate (concentration: 0.5mM) it was 1.09 ± 0.13; with guanosine triphosphate (concentration: 1mM) it was 1.18 ± 0.13; with guanosine triphosphate (concentration: 2mM) it was 1.2 ± 0.15; in the experiment with guanosine triphosphate (concentration: 4mM), 1.2 ± 0.18; in the experiment with guanosine triphosphate (concentration: 6mM) it was 1.14 ± 0.13. In addition, the NP40-soluble protein abundance stood at 1.23 ± 0.17 in the experiment with guanosine triphosphate (concentration: 8mM) and 1.16 ± 0.23 with guanosine triphosphate (concentration: 10mM).
In the case of “A0A067XG54|Q8NB49 and related entries (UniProt Q8NB49)”, the NP40-soluble protein abundance with guanosine triphosphate (concentration: 0.1mM) is 1.11 ± 0.11; in the experiment with guanosine triphosphate (concentration: 0.5mM), 1.09 ± 0.11; with guanosine triphosphate (concentration: 1mM), 1.08 ± 0.1; in the experiment with guanosine triphosphate (concentration: 2mM) it was 1.04 ± 0.11; with guanosine triphosphate (concentration: 4mM) it was 1.13 ± 0.15; in the experiment with guanosine triphosphate (concentration: 6mM), 1.03 ± 0.15. Moreover, the NP40-soluble protein abundance turned out to be 1.06 ± 0.046 with guanosine triphosphate (concentration: 8mM) and 0.959 ± 0.12 with guanosine triphosphate (concentration: 10mM).
Consider TMED7 (UniProt Q9Y3B3), for which the NP40-soluble protein abundance was 1.08 ± 0.011 with adenosine triphosphate (concentration: 1mM); 1.03 ± 0.081 with adenosine triphosphate (concentration: 2mM); 1.06 ± 0.098 in the experiment with adenosine triphosphate (concentration: 4mM); 0.947 ± 0.16 with adenosine triphosphate (concentration: 6mM); 0.979 ± 0.027 with adenosine triphosphate (concentration: 8mM); 1.03 ± 0.036 with adenosine triphosphate (concentration: 10mM).
Consider “A0A087WSV8|Q5URX0 and related entries (UniProt V9HW75+Q5URX0)”, for which the NP40-soluble protein abundance with guanosine triphosphate (concentration: 0.1mM) turned out to be 0.882 ± 0.062; with guanosine triphosphate (concentration: 0.5mM), 0.854 ± 0.05; in the experiment with guanosine triphosphate (concentration: 1mM), 0.999 ± 0.068; in the experiment with guanosine triphosphate (concentration: 2mM), 1.04 ± 0.12; in the experiment with guanosine triphosphate (concentration: 4mM), 1.02 ± 0.073; with guanosine triphosphate (concentration: 6mM), 1.05 ± 0.15. The NP40-soluble protein abundance is 1 ± 0.14 in the experiment with guanosine triphosphate (concentration: 8mM) and 1.29 ± 0.29 with guanosine triphosphate (concentration: 10mM).
Regarding “A0A024R4N9|A0A0G2JNK5|A9C4B9 and related entries (UniProt Q9BSV6)”, the NP40-soluble protein abundance with guanosine triphosphate (concentration: 0.1mM) turned out to be 1.08 ± 0.069; with guanosine triphosphate (concentration: 0.5mM), 0.9936 ± 0.0093; with guanosine triphosphate (concentration: 1mM) it was 1.01 ± 0.088; with guanosine triphosphate (concentration: 2mM), 0.961 ± 0.045; with guanosine triphosphate (concentration: 4mM), 0.967 ± 0.048; with guanosine triphosphate (concentration: 6mM), 1.01 ± 0.031. Also, the NP40-soluble protein abundance was 1.03 ± 0.034 in the experiment with guanosine triphosphate (concentration: 8mM) and 0.966 ± 0.016 with guanosine triphosphate (concentration: 10mM).
Turning to “A0A087WSW9|A0A087WSY9|E9PIR7 and related entries (UniProt Q16881)”, the NP40-soluble protein abundance with guanosine triphosphate (concentration: 0.1mM) came out at 0.99 ± 0.03; with guanosine triphosphate (concentration: 0.5mM), 1.01 ± 0.041; with guanosine triphosphate (concentration: 1mM), 0.918 ± 0.026; in the experiment with guanosine triphosphate (concentration: 2mM) it was 0.928 ± 0.049; with guanosine triphosphate (concentration: 4mM) it was 0.88 ± 0.037; with guanosine triphosphate (concentration: 6mM), 0.9 ± 0.041. Also, the NP40-soluble protein abundance was determined as 0.847 ± 0.022 with guanosine triphosphate (concentration: 8mM) and 0.854 ± 0.059 with guanosine triphosphate (concentration: 10mM).

The values above are taken from the supplement of paper PMC6411743.
